PubChem BioAssay AID1224826, NIAID, 2016
Assay: 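Genes that change LPS-induced Tnf promoter activity in mouse macrophages when knocked down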 (primary screen). Cell system: RAW264.7 G9 macrophages from mouse bearing reporters for p65 (GFP) and the Tnf promoter (mCherry). Knock-down reagent: siRNA pool against mouse genes, 100 nM. Timing: 16 h of LPS stimulation, after 2 days of siRNA transfection. Conditions: bacterial lipopolysaccharide (Salmonella minnesota R595), 10 ng/ml. Detection: 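Nuclear mCherry signal of the Tnf promoter reporter measured by imaging after background removal, scaled to each plate median and turned into robust z-scores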. Direction: Tnf reporter robust z-score: higher = stronger Tnf promoter reporter signal after LPS. Active means: 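Called active when robust z-score is at most -1.3, matching the median of the Tlr4 knock-down control, or over 3; control wells and wells with under 50 cells never active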. Calls: active = Tnf reporter clearly lowered or raised; inactive = no clear change in Tnf reporter.
In all, the deposit lists about 17,000 reagents; this is an unselected part. Over the whole deposit, about 1,110 (6.6%) got an active call. 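Active means lowered or raised reporter signal; replicate intensities are raw and not normalised per plate.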 Further read-outs or replicates are left out here.

For Mlc1 [SID315477244], how do the results read?
Tnf reporter robust z-score: 0.67; fewer than 50 cells in well: enough cells in well; activity call: inactive

How did the screen score Klf11 [SID315477456]?
Tnf reporter robust z-score: 0.6; fewer than 50 cells in well: enough cells in well; activity call: inactive

What is on record for Or51k2 [SID315480039]?
Tnf reporter robust z-score: 0.54; fewer than 50 cells in well: enough cells in well; activity call: inactive

What is on record for Thy1 [SID315469714]?
Tnf reporter robust z-score: 0.23; fewer than 50 cells in well: enough cells in well; activity call: inactive

What did the screen give for Slc9a7 [SID315479306]?
Tnf reporter robust z-score: 0.75; fewer than 50 cells in well: enough cells in well; activity call: inactive

For Or2n1d [SID315480448], what does the deposit list?
Tnf reporter robust z-score: -1.27; fewer than 50 cells in well: enough cells in well; activity call: inactive

How did the screen score Kri1 [SID315477915]?
Tnf reporter robust z-score: -0.41; fewer than 50 cells in well: enough cells in well; activity call: inactive

With Inka2 [SID315476776], how do the results read?
Tnf reporter robust z-score: 4.28; fewer than 50 cells in well: enough cells in well; activity call: active

For Dock6 [SID315481190], how do the results read?
Tnf reporter robust z-score: 1.42; fewer than 50 cells in well: enough cells in well; activity call: inactive

What is on record for Zfp770 [SID315478635]?
Tnf reporter robust z-score: 0.59; fewer than 50 cells in well: enough cells in well; activity call: inactive

With Ocstamp [SID315475016], what was measured?
Tnf reporter robust z-score: 0.84; fewer than 50 cells in well: enough cells in well; activity call: inactive

For Taf1d [SID315475101], how do the results read?
Tnf reporter robust z-score: -1.36; fewer than 50 cells in well: enough cells in well; activity call: active

For P4ha2 [SID315468373], what was measured?
fewer than 50 cells in well: fewer than 50 cells per well; well left out of calls; activity call: inactive

For Ido2 [SID315477579], what does the deposit list?
Tnf reporter robust z-score: 0.01; fewer than 50 cells in well: enough cells in well; activity call: inactive

For Apbb1ip [SID315471250], what was measured?
Tnf reporter robust z-score: -0.25; fewer than 50 cells in well: enough cells in well; activity call: inactive

For Map2k6 [SID315470377], what does the deposit list?
Tnf reporter robust z-score: 0.79; fewer than 50 cells in well: enough cells in well; activity call: inactive

For Tgm6 [SID315479580], how do the results read?
Tnf reporter robust z-score: 1.35; fewer than 50 cells in well: enough cells in well; activity call: inactive

With Snrpg [SID315473361], how do the results read?
fewer than 50 cells in well: fewer than 50 cells per well; well left out of calls; activity call: inactive

For Adcy10 [SID315480951], what was measured?
Tnf reporter robust z-score: -0.58; fewer than 50 cells in well: enough cells in well; activity call: inactive

What did the screen give for Camk1d [SID315478566]?
Tnf reporter robust z-score: 3.18; fewer than 50 cells in well: enough cells in well; activity call: active

With Slc24a5 [SID315481031], what does the deposit list?
Tnf reporter robust z-score: -0.97; fewer than 50 cells in well: enough cells in well; activity call: inactive

Records above called active:
Inka2 [SID315476776] | Tnf reporter robust z-score = 4.28; fewer than 50 cells in well = enough cells in well; activity call = active
Taf1d [SID315475101] | Tnf reporter robust z-score = -1.36; fewer than 50 cells in well = enough cells in well; activity call = active
Camk1d [SID315478566] | Tnf reporter robust z-score = 3.18; fewer than 50 cells in well = enough cells in well; activity call = active
